From patent US20250282872A1 (ANAPTYSBIO, published 2025)
Results are given in words; binding and its absence hold for the method and conditions named. For some of these results: Binding seen in cells or lysates may run through a third protein. Some results given as binding are weak or reduced against the parent protein; the word gives no strength. For some of these results: Where a sequence is shown, tags or fusion partners need not be part of it.

Key:
[1] = molecular target: cynomolgus monkey BTLA on cells (cynomolgus monkey); experiment: receptor occupancy in vivo: flow cytometry of blood T and B cells of cynomolgus monkeys dosed weekly with 6G3 IgG4, free receptor stained with 6G3 IgG4-DyL488 [panels Receptor Occupancy, T cells and B cells]
[2] = molecular target: cynomolgus monkey BTLA on cells (cynomolgus monkey); experiment: flow cytometry on cynomolgus monkey lysed whole blood, gated CD3+ T cells, AF647-labelled antibody, mean fluorescence intensity
[3] = molecular target: cynomolgus monkey BTLA on cells (cynomolgus monkey); experiment: flow cytometry on 293c18 cells stably expressing cynomolgus monkey BTLA
[4] = molecular target: T1, recombinant human BTLA monomer, amino acids 31-155 with 6-his tag (human) (UniProt Q7Z6A9); experiment: hydrogen-deuterium exchange with LC-MS
T1 sequence: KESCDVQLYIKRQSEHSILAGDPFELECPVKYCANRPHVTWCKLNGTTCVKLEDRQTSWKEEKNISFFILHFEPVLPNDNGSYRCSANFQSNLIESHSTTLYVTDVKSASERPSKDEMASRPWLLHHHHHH

[5] = molecular target: cynomolgus monkey BTLA on cells (cynomolgus monkey); experiment: flow cytometry on cynomolgus monkey lysed whole blood, gated CD20+ B cells, AF647-labelled antibody, mean fluorescence intensity
[6] = molecular target: cynomolgus monkey BTLA on cells (cynomolgus monkey); experiment: flow cytometry on cynomolgus monkey whole blood, AF647-labeled antibody

Measured: binding

B1: 6G3 IgG4 anti-BTLA antibody (antibody, V domains shown)
VH: QVQLVQSGAEVKKPGSSVKVSCKASGYVFSTSWMNWVRQAPGQGLEWMGRIYPGDADTNYVGKFKGRVTITADKSTTTAYMELSSLRSEDTAVYFCAKSGTFNFGNYRWYFDVWGKGTTVTVSS
VL: AIQLTQSPSSLSASVGDRVTITCRVSENIYSHLAWYQQKPGKAPKLLIYAATNLALGVPSRFSGSGSGTDYTLTISSLQPEDFATYYCQLFWGPPLTFGGGTKVEIKR
notes: Humanized, IgG4; also called APE10840; APE10840.03
binds: all assays above

B2: 10D8 antibody APE11482 (antibody, V domains shown)
VH: QVQLVQSGAEVKKPGASVKVSCKASGYTLTDYTIHWVRQAPGQRLEWMGWIYPGSGNTKYNDEFKVRVTITRDTSASTAYMELSSLRSEDTAVYYCARRNYYAMEYWGQGTTVTVSS
VL: DIQMTQSPSSLSASVGDRVTITCKASQNVFTNVAWFQQKPGKAPKPLIYSASYRYSGVPSRFSGSGSGTDFTLTISSLQPEDFATYYCQQYSTYPYTFGQGTKLEIKR
binds: [4]
